The values that follow are results of earlier work, collected in publication PMC3974814, “In Vitro Evaluation of the Inhibitory Potential of Pharmaceutical Excipients on Human Carboxylesterase 1A and 2” (PLoS ONE, 2014).

The target in the data set is CES1A1 and CES2. The arrangement: method as in PMID 20810539. The following applies: human CES enzyme activity; isoform per drug not stated; read-out: inhibition constant (Ki); cited from earlier work.

Structures are written as SMILES.

By Ki is commonly meant the equilibrium dissociation constant of an inhibitor or competing ligand from its target. For the molecule `CC(C)OC(=O)C(C)(C)Oc1ccc(C(=O)c2ccc(Cl)cc2)cc1` [fenofibrate], the Ki was 40 nM.
